The list shows a part of the results. The data scatter; read single values as rough.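 Many melting curves are irregular; where none melted, Tm was taken as 64 °C.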
Compound: CCc1cnccc1C(=O)Nc1cc2c(cc1F)NC(=O)CC2
Experiment: melting temperature shift (DMSO Tm minus MBE1-treated Tm) in cellular thermal proteome profiling; higher = less thermal stabilization by MBE1 (negative = stabilized by MBE1)
Details: A375

Amino acid sequences for entries named in this document (tags omitted). A change or cut given only in a name is not applied to a line headed by its entry.
UniProt O00522: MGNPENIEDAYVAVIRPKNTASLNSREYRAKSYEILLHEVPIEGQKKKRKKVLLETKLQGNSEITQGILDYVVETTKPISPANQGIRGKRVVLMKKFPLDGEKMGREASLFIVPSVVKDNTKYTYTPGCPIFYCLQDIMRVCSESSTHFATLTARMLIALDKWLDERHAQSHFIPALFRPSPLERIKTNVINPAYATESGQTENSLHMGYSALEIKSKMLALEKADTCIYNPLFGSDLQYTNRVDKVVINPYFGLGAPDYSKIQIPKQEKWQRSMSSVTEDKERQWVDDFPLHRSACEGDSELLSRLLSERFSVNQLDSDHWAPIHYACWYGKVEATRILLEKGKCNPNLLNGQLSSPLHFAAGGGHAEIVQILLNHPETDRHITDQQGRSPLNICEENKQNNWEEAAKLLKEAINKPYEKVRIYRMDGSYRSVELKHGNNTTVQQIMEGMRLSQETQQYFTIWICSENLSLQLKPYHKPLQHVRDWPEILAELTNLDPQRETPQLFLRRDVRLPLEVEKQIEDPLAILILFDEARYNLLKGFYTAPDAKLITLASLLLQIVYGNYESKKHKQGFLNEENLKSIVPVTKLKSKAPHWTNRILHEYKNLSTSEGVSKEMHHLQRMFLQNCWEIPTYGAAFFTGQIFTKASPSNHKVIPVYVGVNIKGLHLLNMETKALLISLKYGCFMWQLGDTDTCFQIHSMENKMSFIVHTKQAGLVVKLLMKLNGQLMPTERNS
UniProt O00148, whole entry: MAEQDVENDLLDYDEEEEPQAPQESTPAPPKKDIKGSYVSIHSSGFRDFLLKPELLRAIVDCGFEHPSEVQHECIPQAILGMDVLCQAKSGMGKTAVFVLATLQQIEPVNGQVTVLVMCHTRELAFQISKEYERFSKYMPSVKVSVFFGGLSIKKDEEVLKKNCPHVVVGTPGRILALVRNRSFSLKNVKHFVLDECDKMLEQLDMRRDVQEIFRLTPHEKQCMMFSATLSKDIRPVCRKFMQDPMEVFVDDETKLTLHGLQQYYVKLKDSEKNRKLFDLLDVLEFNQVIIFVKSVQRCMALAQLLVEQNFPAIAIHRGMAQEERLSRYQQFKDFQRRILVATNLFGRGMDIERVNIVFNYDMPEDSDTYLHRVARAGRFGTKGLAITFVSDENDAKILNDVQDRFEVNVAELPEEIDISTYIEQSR
UniProt B2RTY4: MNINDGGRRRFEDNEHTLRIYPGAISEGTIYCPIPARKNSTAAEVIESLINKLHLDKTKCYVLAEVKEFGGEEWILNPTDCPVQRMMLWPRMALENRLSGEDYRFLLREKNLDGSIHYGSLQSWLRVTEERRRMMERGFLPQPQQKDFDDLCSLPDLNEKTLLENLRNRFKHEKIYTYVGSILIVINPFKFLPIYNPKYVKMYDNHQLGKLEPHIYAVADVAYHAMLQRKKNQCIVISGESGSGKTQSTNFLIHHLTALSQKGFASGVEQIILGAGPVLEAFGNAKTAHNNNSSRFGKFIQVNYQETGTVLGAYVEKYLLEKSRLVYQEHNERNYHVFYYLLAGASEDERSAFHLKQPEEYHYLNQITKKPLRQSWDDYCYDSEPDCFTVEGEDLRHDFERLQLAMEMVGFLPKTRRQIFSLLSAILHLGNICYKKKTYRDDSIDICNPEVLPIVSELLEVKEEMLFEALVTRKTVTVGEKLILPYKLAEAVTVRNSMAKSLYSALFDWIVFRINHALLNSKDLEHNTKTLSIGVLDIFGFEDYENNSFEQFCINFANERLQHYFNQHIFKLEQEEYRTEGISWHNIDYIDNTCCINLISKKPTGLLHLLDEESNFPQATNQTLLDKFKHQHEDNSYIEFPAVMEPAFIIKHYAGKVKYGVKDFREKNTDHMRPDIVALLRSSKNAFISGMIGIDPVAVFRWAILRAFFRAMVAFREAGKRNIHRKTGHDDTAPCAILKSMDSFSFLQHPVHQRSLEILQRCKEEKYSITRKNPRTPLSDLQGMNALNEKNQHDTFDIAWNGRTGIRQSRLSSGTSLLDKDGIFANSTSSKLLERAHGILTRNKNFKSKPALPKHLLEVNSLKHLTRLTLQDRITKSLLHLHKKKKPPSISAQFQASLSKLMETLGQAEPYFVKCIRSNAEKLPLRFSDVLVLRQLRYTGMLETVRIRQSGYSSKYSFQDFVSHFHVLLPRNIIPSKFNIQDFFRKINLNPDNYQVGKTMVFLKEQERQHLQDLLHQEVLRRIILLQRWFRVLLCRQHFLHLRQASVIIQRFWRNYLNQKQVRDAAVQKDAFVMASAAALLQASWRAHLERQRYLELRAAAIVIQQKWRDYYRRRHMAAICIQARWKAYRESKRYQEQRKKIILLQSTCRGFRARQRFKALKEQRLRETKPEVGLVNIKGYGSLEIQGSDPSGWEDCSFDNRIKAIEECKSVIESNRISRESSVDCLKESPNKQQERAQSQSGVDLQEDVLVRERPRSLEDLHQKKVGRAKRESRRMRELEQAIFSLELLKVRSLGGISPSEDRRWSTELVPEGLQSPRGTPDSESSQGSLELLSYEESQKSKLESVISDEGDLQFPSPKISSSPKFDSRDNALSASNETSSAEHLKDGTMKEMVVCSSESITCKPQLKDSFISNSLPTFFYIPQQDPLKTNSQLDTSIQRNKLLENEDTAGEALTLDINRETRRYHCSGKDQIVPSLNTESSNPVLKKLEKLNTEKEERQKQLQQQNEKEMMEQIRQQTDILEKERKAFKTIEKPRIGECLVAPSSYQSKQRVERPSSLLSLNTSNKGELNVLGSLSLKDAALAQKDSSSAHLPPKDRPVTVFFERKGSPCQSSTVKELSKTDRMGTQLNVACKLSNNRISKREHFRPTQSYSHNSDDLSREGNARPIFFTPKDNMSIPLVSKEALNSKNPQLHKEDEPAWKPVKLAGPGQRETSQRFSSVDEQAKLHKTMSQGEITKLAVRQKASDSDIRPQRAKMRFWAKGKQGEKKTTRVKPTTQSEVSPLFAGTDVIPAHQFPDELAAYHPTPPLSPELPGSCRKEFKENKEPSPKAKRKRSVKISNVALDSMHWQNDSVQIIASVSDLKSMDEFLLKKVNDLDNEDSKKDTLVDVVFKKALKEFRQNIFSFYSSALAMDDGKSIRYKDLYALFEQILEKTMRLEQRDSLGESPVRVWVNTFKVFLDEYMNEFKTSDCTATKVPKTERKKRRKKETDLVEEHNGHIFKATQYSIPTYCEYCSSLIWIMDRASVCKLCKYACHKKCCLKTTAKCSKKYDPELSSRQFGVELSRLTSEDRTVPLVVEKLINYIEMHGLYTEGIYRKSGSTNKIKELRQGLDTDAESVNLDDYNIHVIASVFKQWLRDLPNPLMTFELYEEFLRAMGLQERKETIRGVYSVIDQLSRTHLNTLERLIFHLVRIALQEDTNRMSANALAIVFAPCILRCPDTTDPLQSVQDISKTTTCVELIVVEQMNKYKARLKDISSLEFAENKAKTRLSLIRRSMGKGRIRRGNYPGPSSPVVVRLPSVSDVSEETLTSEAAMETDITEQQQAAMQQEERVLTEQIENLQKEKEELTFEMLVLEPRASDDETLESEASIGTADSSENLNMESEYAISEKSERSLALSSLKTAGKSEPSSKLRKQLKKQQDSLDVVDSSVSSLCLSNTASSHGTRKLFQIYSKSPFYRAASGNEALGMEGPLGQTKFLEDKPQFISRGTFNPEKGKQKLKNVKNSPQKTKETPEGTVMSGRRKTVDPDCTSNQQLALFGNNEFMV
UniProt O14562: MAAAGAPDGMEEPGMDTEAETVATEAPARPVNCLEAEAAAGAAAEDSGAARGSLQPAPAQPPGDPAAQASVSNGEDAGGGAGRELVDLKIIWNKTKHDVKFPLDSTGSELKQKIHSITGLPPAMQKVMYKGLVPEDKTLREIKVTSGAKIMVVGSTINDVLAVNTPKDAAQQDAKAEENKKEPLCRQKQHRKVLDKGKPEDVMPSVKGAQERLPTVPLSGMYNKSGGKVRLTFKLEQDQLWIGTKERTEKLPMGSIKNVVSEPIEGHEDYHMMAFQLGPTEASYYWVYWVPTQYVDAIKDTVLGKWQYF
UniProt O43251: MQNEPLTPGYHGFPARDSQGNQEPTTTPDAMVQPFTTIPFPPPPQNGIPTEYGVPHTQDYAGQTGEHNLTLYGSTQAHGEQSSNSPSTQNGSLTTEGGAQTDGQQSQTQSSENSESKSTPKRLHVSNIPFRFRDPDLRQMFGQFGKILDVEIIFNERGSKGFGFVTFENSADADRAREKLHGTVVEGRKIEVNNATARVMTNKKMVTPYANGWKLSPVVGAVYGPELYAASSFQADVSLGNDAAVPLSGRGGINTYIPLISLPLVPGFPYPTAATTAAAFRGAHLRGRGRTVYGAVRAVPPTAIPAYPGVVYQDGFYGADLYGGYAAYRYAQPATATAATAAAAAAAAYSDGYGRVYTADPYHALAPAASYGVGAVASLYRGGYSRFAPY
UniProt O14757: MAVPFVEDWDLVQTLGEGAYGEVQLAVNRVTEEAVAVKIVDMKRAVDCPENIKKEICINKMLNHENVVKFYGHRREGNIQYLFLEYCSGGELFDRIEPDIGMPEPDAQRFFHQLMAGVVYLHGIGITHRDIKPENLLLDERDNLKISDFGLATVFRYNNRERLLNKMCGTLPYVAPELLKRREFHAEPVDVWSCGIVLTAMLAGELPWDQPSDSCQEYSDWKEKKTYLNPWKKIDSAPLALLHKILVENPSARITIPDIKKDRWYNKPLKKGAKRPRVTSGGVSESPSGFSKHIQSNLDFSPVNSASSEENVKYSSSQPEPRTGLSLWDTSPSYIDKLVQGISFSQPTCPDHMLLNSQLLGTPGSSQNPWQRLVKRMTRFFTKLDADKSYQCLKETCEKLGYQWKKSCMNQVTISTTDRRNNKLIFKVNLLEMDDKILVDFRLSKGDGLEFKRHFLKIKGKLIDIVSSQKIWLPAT
UniProt O43318: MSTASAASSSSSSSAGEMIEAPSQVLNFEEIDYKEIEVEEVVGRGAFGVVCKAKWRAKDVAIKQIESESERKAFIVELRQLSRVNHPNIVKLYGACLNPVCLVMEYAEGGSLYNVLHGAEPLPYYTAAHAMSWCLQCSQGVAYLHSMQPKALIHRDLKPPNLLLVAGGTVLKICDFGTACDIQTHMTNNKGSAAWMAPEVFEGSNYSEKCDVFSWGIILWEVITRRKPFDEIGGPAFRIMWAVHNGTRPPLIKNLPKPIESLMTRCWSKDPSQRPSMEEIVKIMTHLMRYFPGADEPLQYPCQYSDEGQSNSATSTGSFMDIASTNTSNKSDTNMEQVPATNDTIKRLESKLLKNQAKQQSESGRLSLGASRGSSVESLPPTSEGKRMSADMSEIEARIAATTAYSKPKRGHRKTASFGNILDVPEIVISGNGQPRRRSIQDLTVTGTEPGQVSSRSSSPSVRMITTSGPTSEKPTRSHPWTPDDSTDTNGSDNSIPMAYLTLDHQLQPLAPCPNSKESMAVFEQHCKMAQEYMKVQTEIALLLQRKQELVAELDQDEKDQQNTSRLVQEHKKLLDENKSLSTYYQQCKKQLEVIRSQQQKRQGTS
UniProt O43264: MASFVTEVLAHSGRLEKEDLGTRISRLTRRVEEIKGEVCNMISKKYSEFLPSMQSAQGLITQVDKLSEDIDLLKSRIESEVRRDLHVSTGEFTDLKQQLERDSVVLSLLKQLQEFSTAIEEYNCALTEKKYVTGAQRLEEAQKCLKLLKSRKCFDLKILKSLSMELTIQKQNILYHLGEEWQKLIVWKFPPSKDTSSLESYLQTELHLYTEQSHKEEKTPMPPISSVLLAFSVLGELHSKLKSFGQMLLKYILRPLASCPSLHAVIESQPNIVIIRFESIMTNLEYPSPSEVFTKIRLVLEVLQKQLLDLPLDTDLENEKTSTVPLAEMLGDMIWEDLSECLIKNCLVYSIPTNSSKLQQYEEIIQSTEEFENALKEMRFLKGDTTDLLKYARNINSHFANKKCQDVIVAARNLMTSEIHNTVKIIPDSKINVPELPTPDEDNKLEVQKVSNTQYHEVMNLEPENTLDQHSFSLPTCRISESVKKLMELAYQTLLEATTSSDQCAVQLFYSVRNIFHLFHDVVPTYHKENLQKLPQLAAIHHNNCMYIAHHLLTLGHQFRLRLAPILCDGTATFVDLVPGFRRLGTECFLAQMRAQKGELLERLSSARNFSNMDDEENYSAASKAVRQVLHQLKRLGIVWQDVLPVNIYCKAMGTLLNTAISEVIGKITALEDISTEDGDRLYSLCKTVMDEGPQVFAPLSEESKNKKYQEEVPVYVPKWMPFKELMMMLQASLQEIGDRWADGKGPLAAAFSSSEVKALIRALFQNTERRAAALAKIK

| Target | melting temperature shift (MBE1 concentration: 100 nM) | melting temperature shift (MBE1 concentration: 1 uM) |
| --- | --- | --- |
| PLXNB2 (UniProt O15031) | -0.865 °C | 0.336 °C |
| HMGB3 (UniProt O15347) | -4.88 °C | -5.24 °C |
| UniProt A8MWD9 | 0.507 °C | -2.22 °C |
| LAMA5 (UniProt O15230) | -0.993 °C | 3.67 °C |
| HAX1 (UniProt O00165) | 0.458 °C | -1.23 °C |
| WASL (UniProt O00401) | 0.0122 °C | 1.77 °C |
| UniProt A8MW92 | 0.782 °C | 0.397 °C |
| CIT (UniProt O14578) | 0.366 °C | -0.055 °C |
| POLR1C (UniProt O15160) | -1.17 °C | -0.0518 °C |
| NUDT19 (UniProt A8MXV4) | -0.134 °C | 0.288 °C |
| CEP290 (UniProt O15078) | -1.37 °C | -0.402 °C |
| TXNDC9 (UniProt O14530) | -0.208 °C | 0.0402 °C |
| LSM1 (UniProt O15116) | -3.71 °C | -0.283 °C |
| UniProt A7KAX9 | -1.58 °C | -0.434 °C |
| UniProt O00562 | 1.54 °C | 1.21 °C |
| AP5Z1 (UniProt O43299) | 2.42 °C | 0.171 °C |
| CLIC1 (UniProt O00299) | -0.879 °C | -0.288 °C |
| SCAMP3 (UniProt O14828) | -2.8 °C | -0.374 °C |
| UniProt O00522 | -0.532 °C | -0.551 °C |
| ARHGEF10 (UniProt O15013) | -0.687 °C | -0.997 °C |
| PGRMC1 (UniProt O00264) | -0.61 °C | -0.704 °C |
| DDX39A (UniProt O00148) | -0.654 °C | -0.226 °C |
| NVL (UniProt O15381) | -1.42 °C | -0.186 °C |
| UniProt B2RTY4 | 0.714 °C | 0.641 °C |

Single records, from the list above.
WASL (UniProt O00401) in the list: melting temperature shift (MBE1 concentration: 100 nM): 0.0122 °C; melting temperature shift (MBE1 concentration: 1 uM): 1.77 °C
LAMA5 (UniProt O15230) in the list: melting temperature shift (MBE1 concentration: 100 nM): -0.993 °C; melting temperature shift (MBE1 concentration: 1 uM): 3.67 °C
HAX1 (UniProt O00165) in the list: melting temperature shift (MBE1 concentration: 100 nM): 0.458 °C; melting temperature shift (MBE1 concentration: 1 uM): -1.23 °C
SCAMP3 (UniProt O14828) in the list: melting temperature shift (MBE1 concentration: 100 nM): -2.8 °C; melting temperature shift (MBE1 concentration: 1 uM): -0.374 °C

Continuation:

| Target | melting temperature shift (MBE1 concentration: 100 nM) | melting temperature shift (MBE1 concentration: 1 uM) |
| --- | --- | --- |
| TRAFD1 (UniProt O14545) | -2.08 °C | 0.141 °C |
| UniProt O14920 | -0.494 °C | -0.899 °C |
| PPIP5K2 (UniProt O43314) | -0.845 °C | 0.0604 °C |
| NPC1 (UniProt O15118) | -1.72 °C | 1.85 °C |
| ASAP2 (UniProt O43150) | 1.37 °C | 0.837 °C |
| ZNF609 (UniProt O15014) | -1.87 °C | -2.2 °C |
| ARPC5 (UniProt O15511) | -2.67 °C | -0.794 °C |
| BIN1 (UniProt O00499) | 0.696 °C | 1.1 °C |
| NDC80 (UniProt O14777) | -0.474 °C | -0.0128 °C |
| OPLAH (UniProt O14841) | -0.0427 °C | 0.0977 °C |
| DEGS1 (UniProt O15121) | -0.543 °C | -1.61 °C |
| BCL9 (UniProt O00512) | -0.376 °C | -0.0672 °C |
| UBFD1 (UniProt O14562) | -0.454 °C | 0.0183 °C |
| AGPS (UniProt O00116) | -0.547 °C | 0.385 °C |
| XPO1 (UniProt O14980) | 0.244 °C | 0 °C |
| PPP6C (UniProt O00743) | -0.557 °C | -1.04 °C |
| UniProt O00515 | -0.657 °C | 0.0672 °C |
| PPP1R12A (UniProt O14974) | -0.055 °C | -0.885 °C |
| EIF3F (UniProt O00303) | -0.174 °C | -0.0894 °C |
| UniProt C4AMC7 | -0.162 °C | -0.543 °C |
| TNFRSF10B (UniProt O14763) | -3 °C | -1.41 °C |
| SAC3D1 (UniProt A6NKF1) | 0.405 °C | 0.55 °C |
| UniProt O14715 | -0.66 °C | -0.461 °C |
| UniProt L0R8F8 | -0.47 °C | -0.159 °C |

| Target | melting temperature shift (MBE1 concentration: 100 nM) | melting temperature shift (MBE1 concentration: 1 uM) |
| --- | --- | --- |
| UniProt O00268 | -1.15 °C | -0.471 °C |
| FAM83G (UniProt A6ND36) | -3.72 °C | -0.195 °C |
| POLR3G (UniProt O15318) | -0.651 °C | -0.818 °C |
| TMEM189 (UniProt A5PLL7) | -1.74 °C | -1.17 °C |
| STXBP3 (UniProt O00186) | -0.48 °C | -0.833 °C |
| PSMD12 (UniProt O00232) | -0.915 °C | 0.305 °C |
| RIOK3 (UniProt O14730) | -1.14 °C | -1.94 °C |
| UniProt O15050 | -0.841 °C | 0.463 °C |
| TRAPPC13 (UniProt A5PLN9) | -0.25 °C | 0.0305 °C |
| RBFOX2 (UniProt O43251) | -0.55 °C | -0.00611 °C |
| SUPT5H (UniProt O00267) | 0.586 °C | -0.0427 °C |
| UniProt L0R819 | 0 °C | 0 °C |
| PLOD2 (UniProt O00469) | -0.731 °C | 0.165 °C |
| UniProt O00214 | 0.293 °C | -1.56 °C |
| CNOT1 (UniProt A5YKK6) | 0.403 °C | -0.00611 °C |
| TCERG1 (UniProt O14776) | -0.574 °C | -0.494 °C |
| IMPA2 (UniProt O14732) | -3.98 °C | -0.425 °C |
| ARHGEF11 (UniProt O15085) | -0.414 °C | 0.0047 °C |
| TAX1BP3 (UniProt O14907) | -0.795 °C | 0.0381 °C |
| ADAM10 (UniProt O14672) | -1.35 °C | -0.476 °C |
| SURF4 (UniProt O15260) | -1.57 °C | 1.76 °C |
| PMM2 (UniProt O15305) | -0.59 °C | -0.241 °C |
| AP4M1 (UniProt O00189) | -0.805 °C | -1.35 °C |
| PAPSS1 (UniProt O43252) | -0.295 °C | 0.449 °C |

| Target | melting temperature shift (MBE1 concentration: 100 nM) | melting temperature shift (MBE1 concentration: 1 uM) |
| --- | --- | --- |
| UniProt O14757 | 0.241 °C | 0.0977 °C |
| GIPC1 (UniProt O14908) | -0.922 °C | -0.861 °C |
| UniProt O00160 | 0.513 °C | 0.305 °C |
| PSMD11 (UniProt O00231) | -1.09 °C | 0.366 °C |
| UniProt B7ZAP0 | -0.837 °C | -0.385 °C |
| APAF1 (UniProt O14727) | 0.118 °C | 0.4 °C |
| UniProt O15327 | 0.146 °C | -0.136 °C |
| UniProt O15037 | -1.13 °C | -0.989 °C |
| ABCC4 (UniProt O15439) | -1.25 °C | -0.452 °C |
| UniProt O43295 | 0.116 °C | -0.979 °C |
| BTAF1 (UniProt O14981) | 0.458 °C | -0.202 °C |
| CCS (UniProt O14618) | -1.01 °C | 2.21 °C |
| IPO8 (UniProt O15397) | -0.621 °C | -0.682 °C |
| UniProt O00221 | 0.104 °C | -0.287 °C |
| AP3B1 (UniProt O00203) | 0.122 °C | -0.0488 °C |
| ARPC2 (UniProt O15144) | -0.644 °C | -0.0472 °C |
| P4HA2 (UniProt O15460) | -1.25 °C | -0.51 °C |
| PPM1G (UniProt O15355) | 0.0448 °C | -0.0641 °C |
| RAB27B (UniProt O00194) | -1.32 °C | 2.12 °C |
| MAP3K7 (UniProt O43318) | 0.122 °C | -0.141 °C |
| DHX15 (UniProt O43143) | -0.501 °C | -0.11 °C |
| KIF3B (UniProt O15066) | 0.989 °C | -0.0855 °C |
| UniProt A6NFE2 | -5.32 °C | 0.745 °C |
| SART1 (UniProt O43290) | -0.757 °C | -0.0855 °C |

| Target | melting temperature shift (MBE1 concentration: 100 nM) | melting temperature shift (MBE1 concentration: 1 uM) |
| --- | --- | --- |
| ARPC3 (UniProt O15145) | -0.704 °C | 1.28 °C |
| UniProt O00463 | -1.17 °C | 1.3 °C |
| UniProt O14972 | 0.446 °C | 0.226 °C |
| U2SURP (UniProt O15042) | -0.583 °C | -0.34 °C |
| ZW10 (UniProt O43264) | -0.814 °C | -0.329 °C |
| KPNA3 (UniProt O00505) | 1.07 °C | 0.733 °C |
| HNRNPDL (UniProt O14979) | -1.48 °C | 0.482 °C |
| RTCA (UniProt O00442) | -1.54 °C | 1.65 °C |
| HIP1 (UniProt O00291) | 0.531 °C | -0.0611 °C |
| UniProt O14733 | 2.43 °C | 1.2 °C |
| PHGDH (UniProt O43175) | -0.623 °C | 0.0672 °C |
| UBE2C (UniProt O00762) | -0.334 °C | -0.349 °C |
| EIF3D (UniProt O15371) | -0.311 °C | -0.0235 °C |
| DNM1L (UniProt O00429) | 0.0611 °C | 0.122 °C |
| UniProt A5D8V6 | -1.3 °C | -1.06 °C |
| COX7A2L (UniProt O14548) | -3.78 °C | 0.287 °C |
| STX7 (UniProt O15400) | -5.4 °C | -1.95 °C |
| STK25 (UniProt O00506) | 0.788 °C | -1.02 °C |
| UniProt A8MVW0 | 0.501 °C | 2.18 °C |
| UniProt O15054 | -2.45 °C | 1.81 °C |
| UniProt C9JLW8 | 1.91 °C | 1.39 °C |
| UniProt O15015 | -5.51 °C | -0.116 °C |
| SLC9A3R1 (UniProt O14745) | -4.67 °C | -2.33 °C |
| AGPAT2 (UniProt O15120) | -0.482 °C | -0.202 °C |

Reference: the supplement of paper PMC12595434, “Development of retinoid nuclear receptor pathway antagonists through targeting aldehyde dehydrogenase 1A3” (iScience, 2025)
